We go through 52 molecules from PubChem BioAssay AID1487 (National Center for Advancing Translational Sciences (NCATS), 2009).

A short description of the assay: qHTS Assay for Modulators of Lamin A Splicing. The settings on record: HeLa LMNA splicing GFP/RFP minigene ratio, 48 h. The procedure, abridged:
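S3 HeLa stable clones carrying a lamin A-EGFP splicing minigene plus DsRed2 were seeded at 600 cells/well in Opti-MEM with 2% FBS, pin-dosed and incubated 48 h at 37°C. Acumen cytometry (488 nm) gave the GFP/RFP total-intensity ratio.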

The mark [1] stands for this setting: measured here: GFP splicing reporter channel.
The mark [2] stands for this setting: measured here: RFP viability control channel.

Some of the results follow. These are further read-outs of the screen, such as a control signal, another cell line or another target. No call is given for them. Most of these compounds were active or inconclusive in the main read-out, so they are no random draw. Potencies come from curve fits of mixed quality, noted in brackets.

As for `CCOc1ccc(NC(=S)NCc2ccc3[nH]c(C)cc3c2)cc1`, the AC50 under setting [1] is 0.355 µM [rising, partial curve].
In the case of `CC(=O)Nc1nc(C)c(-c2csc(Nc3cccc([N+](=O)[O-])c3)n2)s1`, the AC50 reads like this: under setting [1], 25.1 µM [falling, single point]; under setting [2], 35.5 µM [falling, single point].
Take `CCN(CC)C1=N/C(=C\c2ccc(OC)cc2)C(=O)N1c1ccccc1`: the AC50 by setting is: under setting [1], 11.2 µM [rising, partial curve, poor fit]; under setting [2], 14.1 µM [rising, partial curve].
Regarding `Cc1cccc(N2CCN(C(=O)c3c4c(nc5ccccc35)C(=O)N(C3CCCCC3)C4)CC2)c1C`, the AC50 under setting [2] was 0.398 µM [rising, full curve, poor fit].
As for `CC(C)n1c(C(O)c2ccccc2)nc2ccccc21` (stereo not drawn), the AC50 under setting [1] was 8.91 µM [rising, partial curve, poor fit] and the half-maximal activity concentration (AC50) under setting [2] is 11.2 µM [rising, single point].
On to `CCN1C(=O)N/C(=C/c2cc(C)n(Cc3ccccc3)c2C)C1=O`, for which the AC50 was 11.2 µM [rising, partial curve] under setting [1] and 22.4 µM [rising, single point] under setting [2].
Turning to `O=C(CCc1nnc(Cc2c[nH]c3ccccc23)o1)NCC1CC12CCCCC2` (stereo not drawn), the AC50 is 12.6 µM [falling, single point] under setting [1] and 12.6 µM [falling, single point] under setting [2].
Regarding `COc1cc(OC)c(NC(=O)C(C)n2nc(-c3ccc(C)c(C)c3)ccc2=O)cc1Cl` (stereo not drawn), the AC50 under setting [2] was 0.891 µM [falling, partial curve].
For the molecule `COc1ccc(C(=O)Nc2ccc3c(c2)N(C)C(=O)c2ccccc2S3)cc1OC`, the AC50 under setting [1] was 31.6 µM [rising, single point].
The same measure, in the same setting: as for `Cn1c(=O)c2c(nc(SCCN3CCOCC3)n2Cc2ccccc2Cl)n(C)c1=O`, the figure is 25.1 µM [rising, single point].
Consider `Cc1ccc(S(=O)(=O)N(CCC(=O)Nc2ccc(OC(F)(F)F)cc2)c2ccccc2)cc1`, for which the AC50 under setting [2] is 20 µM [rising, single point].
In the case of `O=C(Nc1cccc(Cl)c1)C1=Cc2cc(Cl)ccc2OC1`, the AC50 runs as follows: under setting [1], 35.5 µM [rising, single point]; under setting [2], 35.5 µM [rising, single point].
`COc1ccc(NC(=O)c2ccc3c(=O)n4nc(Nc5ccccc5C)sc4nc3c2)cc1`: under setting [2], the concentration at half-maximal activity (AC50) was 35.5 µM [falling, single point].
`Cc1nnc(N2CCC(C(=O)NCc3cccc(Cl)c3)CC2)c2nn(-c3ccccc3)c(C)c12`: the AC50 reads like this: under setting [1], 35.5 µM [falling, single point]; under setting [2], 35.5 µM [falling, single point].
Turning to `CCOC(=O)c1c(NC(=O)COC(=O)Cn2cnc3ccccc32)sc(C)c1C`, the AC50 by setting is: under setting [1], 35.5 µM [rising, single point]; under setting [2], 35.5 µM [rising, single point].
Consider `FC(F)(F)c1cccc(Cn2cnc(NC(=S)NCCc3ccccc3)n2)c1`, for which the AC50 under setting [2] was 0.794 µM [falling, full curve, poor fit].
Same read-out and setting: as for `COc1ccc(/C=N/NC(=O)CCSc2nc3ccccc3s2)cc1`, the figure is 1.58 µM [rising, full curve, poor fit].
Turning to `O=C(NNC(=S)NCc1ccccc1)c1ccc(Br)o1`, the AC50 under setting [1] is 20 µM [rising, partial curve, poor fit].
In the case of `O=C(CN1CCN(c2ccccn2)CC1)Nc1cccc(C(F)(F)F)c1`, the AC50 under setting [2] was 2.82 µM [rising, full curve].
Take `Cc1cc(-c2cccs2)c2c(N)c(C(=O)c3ccc4c(c3)OCO4)sc2n1`: under setting [2], the AC50 is 35.5 µM [rising, single point].
On the same count and under the same terms, for `O=C(CSc1ccccc1)Nc1ccncc1` the value was 14.1 µM [rising, partial curve].
For `Clc1ccc(OCCn2cnc3ccccc32)c(Cl)c1`, the AC50 reads like this: under setting [1], 22.4 µM [rising, single point]; under setting [2], 31.6 µM [rising, single point].
On to `C/C(=N\NC(N)=O)c1ccccc1`, for which the AC50 under setting [1] was 0.0141 µM [rising, full curve, poor fit] and the AC50 under setting [2] is 0.0112 µM [rising, full curve, poor fit].
As for `O=C1CCc2ccc(NS(=O)(=O)c3ccc(F)cc3)cc2N1`, the concentration at half-maximal activity (AC50) under setting [2] was 0.02 µM [falling, full curve, poor fit].
Turning to `N#Cc1ccc(OCC(=O)NCC2(N3CCCCC3)CCCCC2)cc1`, the AC50 was 0.562 µM [rising, full curve] under setting [1] and 0.562 µM [rising, full curve] under setting [2].
As for `O=[N+]([O-])c1nn(-c2ccc3c(c2)OCCO3)n(O)c1=NC1CCCCCC1`, the AC50 under setting [1] was 35.5 µM [rising, single point] and the AC50 under setting [2] is 35.5 µM [rising, single point].
On to `COC(=O)c1sccc1NC(=S)Nc1ccc(F)cc1`, for which the AC50 reads like this: under setting [1], 5.01 µM [falling, partial curve, poor fit]; under setting [2], 5.01 µM [falling, partial curve, poor fit].
With `Cc1ccc(NC(=O)c2ccc(OC(F)(F)F)cc2)cc1S(=O)(=O)N(C)C`, under setting [2], the concentration at half-maximal activity (AC50) is 6.31 µM [rising, partial curve].
For `Cc1cccc(NC(=O)/C=C/c2ccc([N+](=O)[O-])s2)c1`, the AC50 reads like this: under setting [1], 17.8 µM [falling, single point]; under setting [2], 10 µM [falling, partial curve].
For the molecule `N[C@@H](CCCC(=O)O)C(=O)O`, the AC50 by setting is: under setting [1], 0.126 µM [rising, full curve, poor fit]; under setting [2], 5.62 µM [falling, single point].
On to `COc1ccccc1-n1c2nc3ccccc3nc2c2c(=O)n(-c3cc(C)cc(C)c3)cnc21`, for which the AC50 under setting [2] was 0.501 µM [rising, full curve].
For the molecule `COc1cc(OC)c(C2C=C(c3ccc(C)cc3)Nc3c(C(=O)Nc4ccccc4)cnn32)cc1OC` (stereo not drawn), the AC50 is, setting by setting: under setting [1], 0.355 µM [rising, partial curve]; under setting [2], 20 µM [rising, partial curve, poor fit].
For the molecule `CCN(CC)c1ccc(N=Nc2ncn[nH]2)cc1`, the AC50 under setting [2] is 0.0708 µM [falling, full curve, poor fit].
Turning to `Cc1cc(O)c(C(c2ccccc2Cl)N2CCCCC2)c(=O)n1Cc1ccco1` (stereo not drawn), the AC50 runs as follows: under setting [1], 1.41 µM [rising, full curve, poor fit]; under setting [2], 2.82 µM [rising, full curve, poor fit].
Regarding `COC(=O)C1=C(C)NC(=O)NC1c1cn(-c2ccccc2)nc1-c1ccc(OC)c(Cl)c1` (stereo not drawn), the AC50 by setting is: under setting [1], 0.0224 µM [rising, full curve, poor fit]; under setting [2], 5.01 µM [rising, partial curve, poor fit].
Take `C/C(=N\NC(=O)c1ccc(Cn2cc(Br)cn2)o1)c1cccc(NC(=O)C(C)C)c1`: under setting [2], the AC50 is 35.5 µM [rising, single point].
In the case of `N#Cc1ccccc1Sc1ccccc1C(=O)Nc1ccccc1`, the AC50 under setting [2] was 3.16 µM [falling, partial curve].
Same read-out and setting: as for `CCOC(=O)C(=O)N(Nc1ccccc1C)c1ccccc1C`, the figure is 10 µM [falling, partial curve, poor fit].
Turning to `O=C(/C=C/c1ccccc1)c1ccc2c3c(cccc13)CC2`, the concentration at half-maximal activity (AC50) under setting [1] is 14.1 µM [falling, single point] and the AC50 under setting [2] is 14.1 µM [falling, single point].
Take `O=C(COC(=O)c1ccccc1Nc1ccc(SC(F)F)cc1)NCc1ccco1`: the AC50 under setting [1] was 7.94 µM [falling, partial curve].
For the molecule `C=CCNC(=O)Nc1ccc(F)cc1F`, the AC50 under setting [1] is 15.8 µM [falling, partial curve, poor fit].
With `CC(C)(C)c1ccc(/C=N/OCC(=O)NCc2ccc(F)cc2)cc1`, the AC50 runs as follows: under setting [1], 35.5 µM [rising, single point]; under setting [2], 35.5 µM [rising, single point].
As to `Cc1cccc(N2CCN(C(=O)c3cn(C)c(=O)c4c3c3ccccc3n4C)CC2)c1C`, the AC50 was 17.8 µM [rising, single point] under setting [1] and 17.8 µM [rising, partial curve] under setting [2].
As to `CCOc1ccccc1NS(=O)(=O)c1c(C(=O)OC)sc2cccc(F)c12`, the AC50 under setting [1] was 0.631 µM [falling, partial curve, poor fit].
`CC(C)OC(=O)C(C(=O)C(F)(F)F)c1cc(NS(=O)(=O)c2ccc3ccccc3c2)c2ccccc2c1O` (stereo not drawn): the AC50 runs as follows: under setting [1], 35.5 µM [falling, partial curve]; under setting [2], 35.5 µM [falling, partial curve, poor fit].
Regarding `COc1cccc(-c2nc(SC(C(C)=O)C(=O)N(C)C)c3c(=O)n(C)c(=O)n(C)c3n2)c1` (stereo not drawn), the AC50 under setting [1] is 0.398 µM [rising, single point].
Regarding `Cn1cc(C(=O)Nc2ccc(Cl)cc2)c(C(F)(F)F)n1`, the AC50 under setting [1] was 0.0224 µM [falling, partial curve, poor fit] and the concentration at half-maximal activity (AC50) under setting [2] was 0.0224 µM [falling, full curve, poor fit].
With `COc1ccc(-n2c(=O)c3c(C)c(C)sc3n(Cc3ccc(F)cc3)c2=O)c(OC)c1`, under setting [2], the AC50 was 0.01 µM [falling, full curve, poor fit].
Take `Cc1ccc(-c2ccc(/C=C3/NC(=O)NC3=O)o2)cc1[N+](=O)[O-]`: the AC50 was 2.82 µM [rising, full curve, poor fit] under setting [1] and 12.6 µM [rising, partial curve] under setting [2].
With `COc1ccc(-n2c(=O)c(-c3ccccc3)nc3cnc(N4CCOCC4)nc32)cc1`, the half-maximal activity concentration (AC50) under setting [2] was 20 µM [falling, partial curve, poor fit].
With `COc1cccc(C(=O)Oc2cc3c4c(c2)C(C)=CC(C)(C)N4C(=O)C3=O)c1`, the AC50 under setting [1] was 35.5 µM [falling, single point] and the AC50 under setting [2] is 25.1 µM [falling, single point].
`CCOc1ccc(C(=O)C(CCC(CN(C)C)C(=O)c2ccc(OCC)cc2)CN(C)C)cc1` (stereo not drawn): the AC50 by setting is: under setting [1], 7.08 µM [falling, partial curve]; under setting [2], 17.8 µM [falling, single point].
